# Screen size: about 320,000 compounds; about 2,100 (0.66%) were called active. Inconclusive results, whose numbers are uncertain, are shown with a selection of clear calls. The call rests on the fitted dose curve; in most records, active means well fitted inhibition curve with a large enough effect in the signal ratio, with a control signal flat (not every such curve was filed as active); inconclusive means small, poorly fitted or top-dose-only effect, or effect the other way, or a change in a side signal; inactive means flat fitted curve, though single readings scatter; the % refers to the signal ratio. Where the call is inconclusive, the potency comes from a doubtful curve fit.
# Experiment: qHTS Assay for Lipid Storage Modulators in Drosophila S3 Cells
# Details: BODIPY lipid droplet fluorescence, 18-24 h, cells fed with added oleic acid; lipid storage change, negative = inhibition: at 46.1 µM (top of the series) unless noted
# Procedure, shortened: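 Drosophila S3 cells loaded with oleic acid (400 uM, as added) and compounds at several concentrations; lipid droplets imaged by 488-nm laser-scanning cytometry, 500–530 nm intensity and object ratio to cell channel. Percent activity normalized to 20 uM Triacsin C.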
# On the % scale 0 is the no-effect control and ±100 the full control effect; potency means the concentration at half of the fitted maximal effect.
Structure (SMILES),"lipid storage change, negative = inhibition",Potency
CC(NC(=O)C1CCCN(S(=O)(=O)c2cccc3nonc23)C1)c1ccccc1 (stereo not drawn),inconclusive: -7.49%,–
Nc1cccc(P(=O)(c2ccccc2)c2ccccc2)c1,inconclusive: 25.1%,–
Cc1cc(C)n(-c2nc3ccccc3nc2NCCc2ccccc2)n1,inconclusive: -0.573% [at 9.22 µM],–
COCC1CCN(C(=O)C2CCC(=O)N(CCc3ccc(Cl)cc3)C2)CC1 (stereo not drawn),inconclusive: 23.5%,–
O=c1cc(CO)oc(CN2CCCC2)c1O,inconclusive: -54.8%,–
COc1ccc(/C=C/c2nnc(NC(=O)C(C)C)s2)cc1,inconclusive: 16.5%,–
Cc1ccccc1/C=C/c1nc2ccccc2c(=O)n1Cc1ccccc1,–,"inconclusive: 32.6 µM [activator, partial curve]"
O=C(c1ccc([N+](=O)[O-])cc1[N+](=O)[O-])N1CCN(C(=O)C2CCCO2)CC1 (stereo not drawn),inconclusive: -7.27%,–
O=C(OC(C(=O)NCc1ccccc1)c1ccccc1F)c1ccco1 (stereo not drawn),inconclusive: 20.7%,–
COc1cccc2cc(C(=O)NNC(=O)c3ccc(Br)cc3)c(=O)oc12,inconclusive: -9.35%,–
COc1ccccc1C(=O)N(Cc1cccs1)C1CCS(=O)(=O)C1 (stereo not drawn),inconclusive: -12.8%,–
Cc1cc(=O)oc2cc(OCC(=O)c3ccccc3)ccc12,inconclusive: -16.6%,–
CCOc1ccccc1N1CCN(C(=O)NCc2ccc(F)cc2)CC1,–,"inconclusive: 0.461 µM [falling, partial curve, poor fit]"
COC(=O)CNC(=O)CSc1nc2sccc2c(=O)n1-c1ccccc1,inconclusive: -10.5%,–
CCOC(=O)c1ccc(S(=O)(=O)N2CCN(CC3CC=CCC3)CC2)cc1 (stereo not drawn),inconclusive: -18%,–
COc1ccc(OC)c(S(=O)(=O)NCc2csc(-c3ccccc3)n2)c1,inconclusive: 79.8%,–
COc1cc(Cl)cc2c1Sc1ccccc1/C2=C/CCN(C)C,inconclusive: -0.0939%,–
O=C(CCC(=O)N1CCN(S(=O)(=O)c2cccc(F)c2)CC1)c1cccs1,inconclusive: 5.95%,–
COc1ccc(C=O)cc1Cn1c(C)cc(C)c(C#N)c1=O,inconclusive: -1.37%,–
O=C(Nc1nnc(C2CC2)s1)C1Cc2ccccc2CN1C(=O)c1ccco1 (stereo not drawn),–,"inconclusive: 29.1 µM [rising, single point]"
CCOc1ccccc1Oc1coc2cc(OC)ccc2c1=O,inconclusive: -11.7%,–
Cc1ccccc1Cn1c2ccccc2c2cnn(CC(=O)NCc3ccco3)c(=O)c21,–,"inconclusive: 2.59 µM [activator, partial curve]"
O=C(c1ccc(C(F)(F)F)cc1)N1CCC(=O)N(C(COCc2ccc(C(F)(F)F)cc2)Cc2ccccc2)CC1 (stereo not drawn),inconclusive: -14.7%,–
O=C(CCCCC(=O)NCCc1ccccc1)NCCc1ccccc1,inactive: -26.6%,–
OC(COc1c(F)cc(Br)cc1F)CN1CCOCC1 (stereo not drawn),–,"inconclusive: 3.66 µM [activator, full curve]"
CC(C)C(=O)Nc1ccc(-c2nc3cccnc3o2)cc1,–,"inconclusive: 0.92 µM [rising, full curve, poor fit]"

# Taken from above:
# lipid storage change, negative = inhibition with COC(=O)CNC(=O)CSc1nc2sccc2c(=O)n1-c1ccccc1 reads inconclusive: -10.5%
# lipid storage change, negative = inhibition with O=C(CCCCC(=O)NCCc1ccccc1)NCCc1ccccc1 reads inactive: -26.6%

# (continued)

Structure (SMILES),"lipid storage change, negative = inhibition",Potency
Cc1ccc2c(c1)N(Cc1ccc([N+](=O)[O-])cc1)C=NS2(=O)=O,–,"inconclusive: 6.51 µM [falling, single point]"
O=C(Nc1cc(C(F)(F)F)ccc1N1CCOCC1)c1cccs1,–,"inconclusive: 29.1 µM [rising, single point]"
COc1ccccc1NC(=O)Cn1nnc(-c2ccccc2NC(=O)c2ccco2)n1,inconclusive: -3.26%,–
C=CCSc1nc2sc3c(c2c(=O)n1CC)CCc1ccccc1-3,inconclusive: -4.18%,–
Cc1ccc(C2C(C#N)=C(N)Oc3n[nH]c(-c4cccs4)c32)s1 (stereo not drawn),inconclusive: 39.4%,–
O=C(Nc1nnc(-c2ccccc2)s1)c1ccc(Cl)c(S(=O)(=O)N2CCOCC2)c1,inconclusive: 3.6%,–
Cc1cc([N+](=O)[O-])ccc1NCc1cccc([N+](=O)[O-])c1,–,"inconclusive: 20.6 µM [falling, single point]"
COCCCN1CN=C(NS(=O)(=O)c2ccc(C)cc2)NC1,inconclusive: 40.1%,–
O=C(NC1CC1)C1CCN(c2ccc(S(=O)(=O)N3CCOCC3)cc2Cl)CC1,inconclusive: -14.3%,–
CCOC(=O)C1=C(COC(=O)C(C)(C)Oc2ccc(Cl)cc2)NC(=O)NC1C (stereo not drawn),inconclusive: 14.1%,–
CCCCn1c(SCC(=O)Nc2cc(C)on2)nc2c1c(=O)n(C)c(=O)n2C,inconclusive: 22.2%,–
O=C(COC(=O)COc1ccc(Cl)cc1)NCc1cccs1,inconclusive: 18%,–
CCCCOc1cccc(OCCCC)c1C(=O)Nc1cc(C)on1,–,"inconclusive: 1.84 µM [rising, partial curve]"
O=C(O)c1cccc(-n2nc(-c3ccc(Cl)c([N+](=O)[O-])c3)c3ccccc3c2=O)c1,–,"inconclusive: 29.1 µM [falling, single point]"
CCSc1nnc(NC(=O)CCc2ccc(OC)cc2)s1,–,"inconclusive: 29.1 µM [activator, single point]"
O=C(COC(=O)c1ccccc1Nc1ccccc1)Nc1ccccc1,–,"inconclusive: 0.651 µM [falling, single point]"
CN(C)c1ccc(CNC2CC(C)(C)NC(C)(C)C2)cc1,inconclusive: -45.6%,–
CN(C)S(=O)(=O)c1ccc(C(=O)Nc2ccc(OCC(=O)N3CCOCC3)cc2)cc1,–,"inconclusive: 16.4 µM [falling, single point]"
O=C(Nc1ccc(C(F)(F)F)cc1)c1ccccc1-n1cnnn1,inconclusive: 6.36%,–
Cc1nc(NC(=O)C2CC2)sc1C(=O)Nc1ccccc1Cl,inconclusive: -26.6%,–
CCCNNC(=O)C(O)(c1cccc(C)c1)c1cccc(C)c1,inconclusive: 100%,–
O=S(=O)(c1ccc(S(=O)(=O)N2CCN(C3CCCCC3)CC2)cc1)N1CCCCCC1,inconclusive: 31.6%,–
COc1ccc(NC(=O)c2cncc(Br)c2)cc1S(=O)(=O)N1CCCCC1,–,"inconclusive: 32.6 µM [falling, single point]"
Cc1ccc(-c2nc(NCCN3CCOCC3)c3ccccc3n2)cc1,inconclusive: 12.6%,–
COc1ccccc1C1C(C#N)=C(N)N(c2cccnc2)C2=C1C(=O)CC(C)(C)C2 (stereo not drawn),inactive: -0.0654%,–
CCCCNc1c2c(nc3c(-c4ccccc4)c(C)nn13)CCC2,inconclusive: 450%,–

Structure (SMILES),"lipid storage change, negative = inhibition",Potency
O=C(OCCN1CCCCC1)c1ccc(O)cc1,–,"inconclusive: 20.6 µM [falling, single point]"
O=S(=O)(c1ccc(F)c(F)c1)N1CCN(Cc2ccc3c(c2)OCO3)CC1,inconclusive: 16.5%,–
COC(=O)CCC(=O)N1CCC(CCC(=O)NCc2ccc(F)cc2)CC1,inconclusive: 28.9%,–
Cc1c(NC(=O)COc2ccc3ccccc3c2)c(=O)n(-c2ccccc2)n1C,inconclusive: 151%,–
CC(=O)c1c(C)n(-c2ccc(N(C)C)cc2)c2ccc(OCC(N)=O)cc12,–,"inconclusive: 3.66 µM [activator, partial curve]"
Cc1c(C(=O)Nc2cccc([N+](=O)[O-])c2)sc2ncn(CC(=O)N3CCOCC3)c(=O)c12,inconclusive: -26.9%,–
O=C(O)CC(C(=O)O)n1nc(-c2ccccc2)cc1-c1ccccc1 (stereo not drawn),inconclusive: -39%,–
Cc1ccc(O)c(C(=O)c2cnn(C(=O)COc3ccc(Cl)cc3)c2)c1,inconclusive: -2.88%,–
Cc1cccc(/C=N/NC(=O)c2cc(-c3cccnc3)nc3c2c(C)nn3-c2ccccc2)c1,inconclusive: 21.8%,–
CCc1ccc(C2c3[nH]c4ccccc4c3CCN2C(=O)CNC(N)=O)cc1 (stereo not drawn),inconclusive: -21.5%,–
CC1(C)Cc2c(ccc3ccccc23)C2=C(C(=O)N3CCCC3)C(=O)C(=O)N21,inconclusive: 7.62%,–
COc1cnc(-c2ccccn2)[nH]c1=O,inconclusive: -86.6%,–
COc1cc(/C=N\Nc2cc(=O)n(C)c(=O)n2C)ccc1O,inconclusive: -14.4%,–
CC(C)NC(=O)CCN1C(=O)c2ccccc2Sc2ncccc21,inconclusive: -31.2%,–
COCCNC(=O)C(c1cccnc1)N(Cc1ccccc1)C(=O)Cn1nnc2ccccc21 (stereo not drawn),inconclusive: 23.5%,–
CCCOC(=O)C1=C(C)NC(=O)NC1c1cc2c(cc1Br)OCO2 (stereo not drawn),inconclusive: 23.1%,–
Cc1cc2ccccn2c1C(=O)Nc1ccccc1,inconclusive: -19.3% [at 9.22 µM],–
COc1ccc(C(=O)NCC(=O)N/N=C/c2ccco2)cc1OC,inconclusive: -100%,–
CSc1ncc(C(=O)O)n1-c1ccc(F)cc1,–,"inconclusive: 25.9 µM [cytotoxic, partial curve, poor fit]"
N#Cc1cc([N+](=O)[O-])ccc1Oc1cccc(/C=N/NC(=O)c2cccc(Cl)c2)c1,–,"inconclusive: 3.26 µM [activator, partial curve]"
CCOC(=O)CSc1nnc(CNc2ccccc2Cl)n1-c1ccccc1,–,"inconclusive: 5.17 µM [falling, full curve, poor fit]"
O=C(O)c1ccc(Cn2c(=S)[nH]c3cc(Cl)ccc3c2=O)cc1,inconclusive: -47.2%,–
Cc1ccccc1Nc1nnc(SCc2nc3ccccc3c(=O)[nH]2)s1,–,"inconclusive: 3.26 µM [falling, full curve]"
Clc1cccc(Cl)c1OCCOCCNCc1ccccc1,inconclusive: 19.6%,–
CN(C(=O)COC(=O)C1CSC2(C)CCC(=O)N12)c1ccccc1 (stereo not drawn),inconclusive: 56.2%,–
CC(=O)c1ccc2c3c(cccc13)C(=O)N(CCc1ccccc1)C2=O,inconclusive: 6.02%,–

# Source: PubChem BioAssay AID2685 (National Center for Advancing Translational Sciences (NCATS), 2010)
